One test deals with T1, peptide N#3.
T1 sequence (peptide): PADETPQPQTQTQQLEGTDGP
The test can be described thus: pull-down; purified His-tagged synthesized peptides (N#1 to N#5) with purified fibronectin; both purified.

A further test deals with T2, peptide N#4.
T2 sequence (peptide): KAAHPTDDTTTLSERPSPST
The description is as above.

Test [1] deals with T3, dysadherin ΔC-mutant, His-tagged (UniProt Q96DB9).
T3 sequence: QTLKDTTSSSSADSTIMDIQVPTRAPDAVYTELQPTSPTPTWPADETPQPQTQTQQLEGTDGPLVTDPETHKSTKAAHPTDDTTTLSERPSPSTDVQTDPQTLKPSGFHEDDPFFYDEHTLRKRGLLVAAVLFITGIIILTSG
The test can be described thus: pull-down; purified His-tagged dysadherin proteins (full length, ΔN, ΔC; from E. coli) with purified fibronectin protein; both purified.

Test [2] concerns the target T4, dysadherin (human (endogenous in SW480)) (UniProt Q96DB9).
T4 sequence: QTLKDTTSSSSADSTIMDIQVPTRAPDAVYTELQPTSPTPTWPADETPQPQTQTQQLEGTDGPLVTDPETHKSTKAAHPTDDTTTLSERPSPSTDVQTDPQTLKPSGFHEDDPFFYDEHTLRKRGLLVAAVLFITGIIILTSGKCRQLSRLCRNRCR
The test can be described thus: co-IP; exogenous fibronectin added prior to the anti-dysadherin (M53) co-IP of SW480 cells, immunoblot for fibronectin. On the technique in general: A western blot detects proteins with antibodies after separation by electrophoresis.

Results are given in words; binding and its absence hold for the method and conditions named. A result given as binding can be weak or reduced; the word gives no strength. For some of these results: Sequences can lack the tags named with a protein. For some of these results: In cells and extracts the contact can be indirect.

For the substance purified fibronectin protein, the binding result (with peptide N#3; in the test with peptide N#4; in test [1]) was “binds” each time.

With exogenous fibronectin, the binding result in test [2] is recorded as “binds”.

The values above are taken from PMC9169357.
